Test results taken from patent publication US20110123523A1.
No constants are given. Whether binding was seen depends on the method and setting. Some binding calls cover weakened binding; strength is not graded here.

The chains behind the UniProt entries cited, without tags or fusion partners. Residues count along the entry.
UniProt P21860, residues 20-643: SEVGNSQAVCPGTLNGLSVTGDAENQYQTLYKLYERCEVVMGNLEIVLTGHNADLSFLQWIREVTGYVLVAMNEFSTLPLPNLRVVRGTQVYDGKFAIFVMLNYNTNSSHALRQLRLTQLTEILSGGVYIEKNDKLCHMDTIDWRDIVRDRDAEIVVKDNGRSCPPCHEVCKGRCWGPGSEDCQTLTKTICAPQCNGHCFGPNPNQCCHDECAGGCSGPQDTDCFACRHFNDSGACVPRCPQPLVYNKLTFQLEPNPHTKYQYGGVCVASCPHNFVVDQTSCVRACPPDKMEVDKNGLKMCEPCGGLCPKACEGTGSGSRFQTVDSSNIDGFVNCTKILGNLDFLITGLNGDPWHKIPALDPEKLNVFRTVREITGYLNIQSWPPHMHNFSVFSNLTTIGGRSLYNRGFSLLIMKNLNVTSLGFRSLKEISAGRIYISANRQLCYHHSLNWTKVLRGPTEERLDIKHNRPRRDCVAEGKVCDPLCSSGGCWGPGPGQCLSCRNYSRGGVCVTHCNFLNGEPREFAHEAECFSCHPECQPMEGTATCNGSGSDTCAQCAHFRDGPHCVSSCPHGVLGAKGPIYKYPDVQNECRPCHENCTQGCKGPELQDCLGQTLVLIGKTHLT

Biological target: ErbB3 as used in the surface plasmon resonance (Flexchip) and KinExA assays (human) (UniProt P21860)
Assay: surface plasmon resonance (Flexchip)

- binding: binds
B1: Antibody #3 (Ab #3), human anti-ErbB3 antibody (antibody, V domains shown)
VH: EVQLLESGGGLVQPGGSLRLSCAASGFTFSAYNMRWVRQAPGKGLEWVSVIYPSGGATRYADSVKGRFTISRDNSKNTLYLQMNSLRAEDTAVYYCARGYYYYGMDVWGQGTLVTVSS
VL: QSVLTQPPSASGTPGQRVTISCSGSDSNIGRNYIYWYQQFPGTAPKLLIYRNNQRPSGVPDRISGSKSGTSASLAISGLRSEDEAEYHCGTWDDSLSGPVFGGGTKLTVL
